Measured values reported in article PMC8390644.

Amino acid sequences for entries named in this document (tags omitted).
UniProt Q01860: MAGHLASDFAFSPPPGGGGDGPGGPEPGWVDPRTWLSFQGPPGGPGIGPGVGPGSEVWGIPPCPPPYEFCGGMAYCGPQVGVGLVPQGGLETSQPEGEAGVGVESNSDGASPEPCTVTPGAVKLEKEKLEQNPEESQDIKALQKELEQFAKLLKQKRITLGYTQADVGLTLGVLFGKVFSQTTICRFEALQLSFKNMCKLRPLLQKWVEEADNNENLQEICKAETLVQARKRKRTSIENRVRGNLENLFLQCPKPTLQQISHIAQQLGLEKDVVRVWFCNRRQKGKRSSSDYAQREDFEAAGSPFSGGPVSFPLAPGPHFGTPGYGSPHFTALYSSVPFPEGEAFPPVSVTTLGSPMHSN
UniProt P51532: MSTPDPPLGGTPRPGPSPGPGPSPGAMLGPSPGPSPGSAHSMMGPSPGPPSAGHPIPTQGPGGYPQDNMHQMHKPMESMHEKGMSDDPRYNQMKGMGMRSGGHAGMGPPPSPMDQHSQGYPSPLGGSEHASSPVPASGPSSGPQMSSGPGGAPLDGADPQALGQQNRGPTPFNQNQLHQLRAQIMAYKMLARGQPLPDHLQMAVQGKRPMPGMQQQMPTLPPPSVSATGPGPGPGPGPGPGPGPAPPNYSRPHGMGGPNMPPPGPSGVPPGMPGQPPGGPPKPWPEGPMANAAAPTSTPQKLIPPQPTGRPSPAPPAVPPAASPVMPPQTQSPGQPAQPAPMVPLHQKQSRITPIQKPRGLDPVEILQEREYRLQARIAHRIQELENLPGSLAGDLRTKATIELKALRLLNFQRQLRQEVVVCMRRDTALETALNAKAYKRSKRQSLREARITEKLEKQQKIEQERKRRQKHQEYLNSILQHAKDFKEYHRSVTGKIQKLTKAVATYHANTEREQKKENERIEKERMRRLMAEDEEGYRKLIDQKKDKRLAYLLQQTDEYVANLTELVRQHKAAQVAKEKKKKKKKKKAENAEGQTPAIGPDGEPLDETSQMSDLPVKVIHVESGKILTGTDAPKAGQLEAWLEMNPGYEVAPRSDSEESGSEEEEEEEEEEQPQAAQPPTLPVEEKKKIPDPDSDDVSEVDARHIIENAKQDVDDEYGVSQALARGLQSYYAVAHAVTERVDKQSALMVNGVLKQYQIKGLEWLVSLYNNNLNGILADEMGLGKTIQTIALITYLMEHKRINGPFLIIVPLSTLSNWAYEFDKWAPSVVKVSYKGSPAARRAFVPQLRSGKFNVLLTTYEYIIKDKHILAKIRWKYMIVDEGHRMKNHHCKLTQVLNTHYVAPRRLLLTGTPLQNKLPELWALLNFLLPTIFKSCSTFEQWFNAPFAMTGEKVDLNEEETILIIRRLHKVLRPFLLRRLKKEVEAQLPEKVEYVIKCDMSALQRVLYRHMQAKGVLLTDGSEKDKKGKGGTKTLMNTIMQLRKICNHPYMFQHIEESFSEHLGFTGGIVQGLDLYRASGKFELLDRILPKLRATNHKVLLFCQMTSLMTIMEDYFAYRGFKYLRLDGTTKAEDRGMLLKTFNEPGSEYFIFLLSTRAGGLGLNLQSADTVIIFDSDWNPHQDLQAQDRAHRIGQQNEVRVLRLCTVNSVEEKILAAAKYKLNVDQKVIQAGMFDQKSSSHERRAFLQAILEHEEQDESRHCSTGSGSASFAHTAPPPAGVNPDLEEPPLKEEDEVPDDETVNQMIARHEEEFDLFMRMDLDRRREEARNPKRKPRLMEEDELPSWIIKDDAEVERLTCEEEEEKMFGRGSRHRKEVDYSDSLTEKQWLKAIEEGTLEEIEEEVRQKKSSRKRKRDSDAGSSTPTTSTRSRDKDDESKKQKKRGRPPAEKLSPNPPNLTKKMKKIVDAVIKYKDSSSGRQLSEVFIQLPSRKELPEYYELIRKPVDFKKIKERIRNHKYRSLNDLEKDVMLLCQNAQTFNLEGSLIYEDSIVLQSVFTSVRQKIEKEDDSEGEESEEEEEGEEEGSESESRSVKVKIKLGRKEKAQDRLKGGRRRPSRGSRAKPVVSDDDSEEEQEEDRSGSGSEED
UniProt O60264: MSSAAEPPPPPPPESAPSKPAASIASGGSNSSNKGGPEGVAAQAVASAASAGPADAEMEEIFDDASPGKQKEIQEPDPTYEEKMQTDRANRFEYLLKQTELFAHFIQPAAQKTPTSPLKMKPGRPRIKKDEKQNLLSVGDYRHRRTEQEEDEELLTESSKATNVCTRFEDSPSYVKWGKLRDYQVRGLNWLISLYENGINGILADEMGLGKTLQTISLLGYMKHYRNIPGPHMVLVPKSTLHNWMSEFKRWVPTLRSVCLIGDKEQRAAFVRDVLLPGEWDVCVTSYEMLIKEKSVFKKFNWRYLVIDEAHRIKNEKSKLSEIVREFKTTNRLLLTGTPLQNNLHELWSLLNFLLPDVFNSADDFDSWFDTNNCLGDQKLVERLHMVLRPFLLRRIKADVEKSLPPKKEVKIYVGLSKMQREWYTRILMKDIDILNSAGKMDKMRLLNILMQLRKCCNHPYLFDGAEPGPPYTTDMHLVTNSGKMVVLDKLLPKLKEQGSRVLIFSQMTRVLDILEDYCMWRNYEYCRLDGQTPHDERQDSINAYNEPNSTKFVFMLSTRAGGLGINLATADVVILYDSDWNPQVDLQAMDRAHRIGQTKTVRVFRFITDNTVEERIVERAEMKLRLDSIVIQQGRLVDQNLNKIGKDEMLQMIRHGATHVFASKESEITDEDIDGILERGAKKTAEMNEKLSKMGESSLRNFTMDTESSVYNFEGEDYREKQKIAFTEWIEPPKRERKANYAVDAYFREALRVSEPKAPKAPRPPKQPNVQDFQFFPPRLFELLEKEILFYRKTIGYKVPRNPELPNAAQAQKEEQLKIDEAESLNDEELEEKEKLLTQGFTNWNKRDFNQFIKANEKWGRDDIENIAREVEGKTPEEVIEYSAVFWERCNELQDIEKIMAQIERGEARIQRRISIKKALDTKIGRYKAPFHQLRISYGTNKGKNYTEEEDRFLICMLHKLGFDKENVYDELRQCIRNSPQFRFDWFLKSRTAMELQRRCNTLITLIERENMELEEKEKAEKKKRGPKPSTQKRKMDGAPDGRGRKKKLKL
UniProt P51531: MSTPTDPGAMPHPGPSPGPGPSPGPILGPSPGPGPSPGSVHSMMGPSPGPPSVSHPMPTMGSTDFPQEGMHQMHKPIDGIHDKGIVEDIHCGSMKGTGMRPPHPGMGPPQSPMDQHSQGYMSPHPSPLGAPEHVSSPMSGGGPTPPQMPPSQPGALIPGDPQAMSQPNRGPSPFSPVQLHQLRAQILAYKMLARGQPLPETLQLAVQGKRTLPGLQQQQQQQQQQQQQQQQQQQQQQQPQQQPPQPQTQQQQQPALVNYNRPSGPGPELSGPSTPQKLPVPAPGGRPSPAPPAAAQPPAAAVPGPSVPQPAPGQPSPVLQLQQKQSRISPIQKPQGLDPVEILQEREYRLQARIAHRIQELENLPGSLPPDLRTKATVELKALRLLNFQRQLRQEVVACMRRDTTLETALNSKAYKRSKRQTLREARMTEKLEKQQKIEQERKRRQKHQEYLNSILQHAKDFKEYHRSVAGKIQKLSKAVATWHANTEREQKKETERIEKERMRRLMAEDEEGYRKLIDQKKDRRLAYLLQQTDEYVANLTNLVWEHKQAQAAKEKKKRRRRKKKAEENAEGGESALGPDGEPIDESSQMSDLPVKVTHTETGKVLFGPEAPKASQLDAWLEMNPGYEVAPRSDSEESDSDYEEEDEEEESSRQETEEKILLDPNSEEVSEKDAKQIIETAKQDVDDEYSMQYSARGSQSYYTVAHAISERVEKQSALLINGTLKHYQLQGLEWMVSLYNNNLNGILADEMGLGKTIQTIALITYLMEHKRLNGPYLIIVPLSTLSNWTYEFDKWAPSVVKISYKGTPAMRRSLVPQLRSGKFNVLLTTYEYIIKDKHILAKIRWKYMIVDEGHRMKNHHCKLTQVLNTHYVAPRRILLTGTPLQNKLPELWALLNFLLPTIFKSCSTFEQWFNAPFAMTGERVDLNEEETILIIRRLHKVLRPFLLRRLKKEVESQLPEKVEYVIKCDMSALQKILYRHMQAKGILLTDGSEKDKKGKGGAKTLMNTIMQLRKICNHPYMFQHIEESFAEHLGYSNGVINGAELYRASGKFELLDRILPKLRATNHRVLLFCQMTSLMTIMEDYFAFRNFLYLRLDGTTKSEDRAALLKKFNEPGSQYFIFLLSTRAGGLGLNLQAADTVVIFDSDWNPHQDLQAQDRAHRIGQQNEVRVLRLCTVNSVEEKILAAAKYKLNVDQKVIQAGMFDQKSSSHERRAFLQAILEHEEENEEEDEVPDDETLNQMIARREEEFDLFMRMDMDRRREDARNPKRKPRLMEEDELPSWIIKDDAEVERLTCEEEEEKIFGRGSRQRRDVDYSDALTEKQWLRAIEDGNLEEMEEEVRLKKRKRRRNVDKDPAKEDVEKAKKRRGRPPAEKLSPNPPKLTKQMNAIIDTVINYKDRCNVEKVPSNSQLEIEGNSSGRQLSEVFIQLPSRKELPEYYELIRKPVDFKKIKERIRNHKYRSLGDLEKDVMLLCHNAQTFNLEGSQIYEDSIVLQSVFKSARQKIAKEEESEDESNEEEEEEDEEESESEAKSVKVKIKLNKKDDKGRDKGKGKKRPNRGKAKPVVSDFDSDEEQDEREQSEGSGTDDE
UniProt Q02880: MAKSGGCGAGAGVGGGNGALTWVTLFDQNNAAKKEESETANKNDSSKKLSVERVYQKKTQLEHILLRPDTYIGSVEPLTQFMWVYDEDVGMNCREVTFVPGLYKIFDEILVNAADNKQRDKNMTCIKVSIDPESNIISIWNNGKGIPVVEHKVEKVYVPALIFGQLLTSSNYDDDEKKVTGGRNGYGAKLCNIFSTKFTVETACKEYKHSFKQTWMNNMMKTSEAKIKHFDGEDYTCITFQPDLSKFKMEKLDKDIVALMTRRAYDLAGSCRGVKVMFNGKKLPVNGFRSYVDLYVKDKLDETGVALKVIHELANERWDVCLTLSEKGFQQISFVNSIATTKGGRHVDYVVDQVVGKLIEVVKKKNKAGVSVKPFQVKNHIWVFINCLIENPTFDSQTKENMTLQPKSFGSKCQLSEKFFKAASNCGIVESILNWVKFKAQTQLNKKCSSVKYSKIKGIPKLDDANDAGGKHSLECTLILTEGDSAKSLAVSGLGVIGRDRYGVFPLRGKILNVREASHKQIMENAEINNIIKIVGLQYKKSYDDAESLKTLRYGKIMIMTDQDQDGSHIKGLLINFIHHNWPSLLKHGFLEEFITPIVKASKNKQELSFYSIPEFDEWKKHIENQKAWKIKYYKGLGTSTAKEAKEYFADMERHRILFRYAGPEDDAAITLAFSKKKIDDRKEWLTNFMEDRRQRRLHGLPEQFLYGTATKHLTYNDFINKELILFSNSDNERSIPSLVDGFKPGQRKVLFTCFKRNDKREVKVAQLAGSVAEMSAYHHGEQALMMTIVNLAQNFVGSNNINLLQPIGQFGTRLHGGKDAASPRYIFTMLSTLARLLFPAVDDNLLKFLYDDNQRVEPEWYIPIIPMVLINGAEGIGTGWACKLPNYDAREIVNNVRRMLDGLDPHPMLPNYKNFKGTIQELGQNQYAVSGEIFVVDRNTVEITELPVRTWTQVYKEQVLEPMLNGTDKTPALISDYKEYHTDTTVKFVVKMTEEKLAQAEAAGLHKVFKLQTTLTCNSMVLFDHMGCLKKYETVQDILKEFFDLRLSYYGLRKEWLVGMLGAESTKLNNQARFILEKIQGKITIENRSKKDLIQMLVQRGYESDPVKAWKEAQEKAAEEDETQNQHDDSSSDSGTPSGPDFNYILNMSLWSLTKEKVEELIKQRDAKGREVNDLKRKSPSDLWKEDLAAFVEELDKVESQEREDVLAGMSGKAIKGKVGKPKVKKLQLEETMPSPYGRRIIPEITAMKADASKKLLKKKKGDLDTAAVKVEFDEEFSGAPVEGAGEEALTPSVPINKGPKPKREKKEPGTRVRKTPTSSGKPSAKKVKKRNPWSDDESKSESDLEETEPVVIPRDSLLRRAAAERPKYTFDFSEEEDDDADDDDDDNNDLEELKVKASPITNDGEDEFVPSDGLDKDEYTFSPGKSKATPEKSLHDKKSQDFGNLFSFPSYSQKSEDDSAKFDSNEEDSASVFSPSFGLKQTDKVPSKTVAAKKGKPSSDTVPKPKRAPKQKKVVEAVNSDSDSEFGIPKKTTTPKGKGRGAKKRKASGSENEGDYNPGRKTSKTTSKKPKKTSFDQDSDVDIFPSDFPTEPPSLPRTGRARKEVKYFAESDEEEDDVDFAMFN

Key:
[1] = molecular target: OCT4^3xFLBio (human (endogenous in WIBR2 hESCs)) (UniProt Q01860); experiment: affinity purification with mass spectrometry; naïve hESCs; nuclear extract dialysed against buffer D (100 mM KCl), Benzonase, washes in buffer D with 0.02% NP40; SA-IP and FLAG-IP of WIBR2-OCT4^3xFLBio against BirA control (2i/L/DOX+RI, KLF2 and NANOG transgenes) and OCT4 antibody IP against IgG in WIBR2 and WIBR3 (4i/L/A); hit in at least three of four MS experiments, CCP score with FDR cutoff 0.1
[2] = molecular target: OCT4^3xFLBio (human (endogenous in WIBR2 hESCs)) (UniProt Q01860); experiment: affinity purification with mass spectrometry; primed hESCs; nuclear extract dialysed against buffer D (100 mM KCl), Benzonase, washes in buffer D with 0.02% NP40; SA-IP and FLAG-IP of WIBR2-OCT4^3xFLBio against BirA control and OCT4 antibody IP against IgG in WIBR2 and WIBR3; hit in at least three of four MS experiments, CCP score with FDR cutoff 0.1
[3] = molecular target: OCT4^3xFLBio (human (endogenous in WIBR2 hESCs)) (UniProt Q01860); experiment: affinity purification with mass spectrometry; naïve hESCs; nuclear extract dialysed against buffer D (100 mM KCl), Benzonase, washes in buffer D with 0.02% NP40; SA-IP and FLAG-IP of WIBR2-OCT4^3xFLBio against BirA control (2i/L/DOX+RI, KLF2 and NANOG transgenes) and OCT4 antibody IP against IgG in WIBR2 and WIBR3 (4i/L/A); hit in at least three of four MS experiments, CCP score with FDR cutoff 0.1; remark: listed apart in the source

## MSH6 (from UniProt P52701 1-1360)
[1]
  binding: binds

## BRG1 (SMARCA4) (from UniProt P51532 1-1647)
[2]
  binding: binds
[1]
  binding: binds

## SNF2H (SMARCA5) (from UniProt O60264 1-1052)
[2]
  binding: binds
[1]
  binding: binds

## SMCHD1 (from UniProt A6NHR9 1-2005)
[1]
  binding: binds

## SNF2L (SMARCA1) (from UniProt P28370 1-1042)
[2]
  binding: binds

## BRM (SMARCA2) (from UniProt P51531 1-1590)
[1]
  binding: binds

## EPPK1 (from UniProt P58107 1-5088)
[1]
  binding: binds

## TOP2B (from UniProt Q02880 1-1626)
[2]
  binding: binds

B1: SMC1A (protein, UniProt Q14683 1-1233)
chain: MGFLKLIEIENFKSYKGRQIIGPFQRFTAIIGPNGSGKSNLMDAISFVLGEKTSNLRVKTLRDLIHGAPVGKPAANRAFVSMVYSEEGAEDRTFARVIVGGSSEYKINNKVVQLHEYSEELEKLGILIKARNFLVFQGAVESIAMKNPKERTALFEEISRSGELAQEYDKRKKEMVKAEEDTQFNYHRKKNIAAERKEAKQEKEEADRYQRLKDEVVRAQVQLQLFKLYHNEVEIEKLNKELASKNKEIEKDKKRMDKVEDELKEKKKELGKMMREQQQIEKEIKEKDSELNQKRPQYIKAKENTSHKIKKLEAAKKSLQNAQKHYKKRKGDMDELEKEMLSVEKARQEFEERMEEESQSQGRDLTLEENQVKKYHRLKEEASKRAATLAQELEKFNRDQKADQDRLDLEERKKVETEAKIKQKLREIEENQKRIEKLEEYITTSKQSLEEQKKLEGELTEEVEMAKRRIDEINKELNQVMEQLGDARIDRQESSRQQRKAEIMESIKRLYPGSVYGRLIDLCQPTQKKYQIAVTKVLGKNMDAIIVDSEKTGRDCIQYIKEQRGEPETFLPLDYLEVKPTDEKLRELKGAKLVIDVIRYEPPHIKKALQYACGNALVCDNVEDARRIAFGGHQRHKTVALDGTLFQKSGVISGGASDLKAKARRWDEKAVDKLKEKKERLTEELKEQMKAKRKEAELRQVQSQAHGLQMRLKYSQSDLEQTKTRHLALNLQEKSKLESELANFGPRINDIKRIIQSREREMKDLKEKMNQVEDEVFEEFCREIGVRNIREFEEEKVKRQNEIAKKRLEFENQKTRLGIQLDFEKNQLKEDQDKVHMWEQTVKKDENEIEKLKKEEQRHMKIIDETMAQLQDLKNQHLAKKSEVNDKNHEMEEIRKKLGGANKEMTHLQKEVTAIETKLEQKRSDRHNLLQACKMQDIKLPLSKGTMDDISQEEGSSQGEDSVSGSQRISSIYAREALIEIDYGDLCEDLKDAQAEEEIKQEMNTLQQKLNEQQSVLQRIAAPNMKAMEKLESVRDKFQETSDEFEAARKRAKKAKQAFEQIKKERFDRFNACFESVATNIDEIYKALSRNSSAQAFLGPENPEEPYLDGINYNCVAPGKRFRPMDNLSGGEKTVAALALLFAIHSYKPAPFFVLDEIDAALDNTNIGKVANYIKEQSTCNFQAIVISLKEEFYTKAESLIGVYPEQGDCVISKVLTFDLTKYPDANPNPNEQ
[3]
  binding: binds

B2: NLRP2 (protein, UniProt Q9NX02 1-1062)
chain: MVSSAQMGFNLQALLEQLSQDELSKFKYLITTFSLAHELQKIPHKEVDKADGKQLVEILTTHCDSYWVEMASLQVFEKMHRMDLSERAKDEVREAALKSFNKRKPLSLGITRKERPPLDVDEMLERFKTEAQAFTETKGNVICLGKEVFKGKKPDKDNRCRYILKTKFREMWKSWPGDSKEVQVMAERYKMLIPFSNPRVLPGPFSYTVVLYGPAGLGKTTLAQKLMLDWAEDNLIHKFKYAFYLSCRELSRLGPCSFAELVFRDWPELQDDIPHILAQARKILFVIDGFDELGAAPGALIEDICGDWEKKKPVPVLLGSLLNRVMLPKAALLVTTRPRALRDLRILAEEPIYIRVEGFLEEDRRAYFLRHFGDEDQAMRAFELMRSNAALFQLGSAPAVCWIVCTTLKLQMEKGEDPVPTCLTRTGLFLRFLCSRFPQGAQLRGALRTLSLLAAQGLWAQTSVLHREDLERLGVQESDLRLFLDGDILRQDRVSKGCYSFIHLSFQQFLTALFYTLEKEEEEDRDGHTWDIGDVQKLLSGVERLRNPDLIQAGYYSFGLANEKRAKELEATFGCRMSPDIKQELLRCDISCKGGHSTVTDLQELLGCLYESQEEELVKEVMAQFKEISLHLNAVDVVPSSFCVKHCRNLQKMSLQVIKENLPENVTASESDAEVERSQDDQHMLPFWTDLCSIFGSNKDLMGLAINDSFLSASLVRILCEQIASDTCHLQRVVFKNISPADAHRNLCLALRGHKTVTYLTLQGNDQDDMFPALCEVLRHPECNLRYLGLVSCSATTQQWADLSLALEVNQSLTCVNLSDNELLDEGAKLLYTTLRHPKCFLQRLSLENCHLTEANCKDLAAVLVVSRELTHLCLAKNPIGNTGVKFLCEGLRYPECKLQTLVLWNCDITSDGCCDLTKLLQEKSSLLCLDLGLNHIGVKGMKFLCEALRKPLCNLRCLWLWGCSIPPFSCEDLCSALSCNQSLVTLDLGQNPLGSSGVKMLFETLTCSSGTLRTLRLKIDDFNDELNKLLEEIEEKNPQLIIDTEKHHPWAERPSSHDFMI
[3]
  binding: binds

B3: NLRP7 (protein, UniProt Q8WX94 1-980)
chain: MTSPQLEWTLQTLLEQLNEDELKSFKSLLWAFPLEDVLQKTPWSEVEEADGKKLAEILVNTSSENWIRNATVNILEEMNLTELCKMAKAEMMEDGQVQEIDNPELGDAEEDSELAKPGEKEGWRNSMEKQSLVWKNTFWQGDIDNFHDDVTLRNQRFIPFLNPRTPRKLTPYTVVLHGPAGVGKTTLAKKCMLDWTDCNLSPTLRYAFYLSCKELSRMGPCSFAELISKDWPELQDDIPSILAQAQRILFVVDGLDELKVPPGALIQDICGDWEKKKPVPVLLGSLLKRKMLPRAALLVTTRPRALRDLQLLAQQPIYVRVEGFLEEDRRAYFLRHFGDEDQAMRAFELMRSNAALFQLGSAPAVCWIVCTTLKLQMEKGEDPVPTCLTRTGLFLRFLCSRFPQGAQLRGALRTLSLLAAQGLWAQMSVFHREDLERLGVQESDLRLFLDGDILRQDRVSKGCYSFIHLSFQQFLTALFYALEKEEGEDRDGHAWDIGDVQKLLSGEERLKNPDLIQVGHFLFGLANEKRAKELEATFGCRMSPDIKQELLQCKAHLHANKPLSVTDLKEVLGCLYESQEEELAKVVVAPFKEISIHLTNTSEVMHCSFSLKHCQDLQKLSLQVAKGVFLENYMDFELDIEFERCTYLTIPNWARQDLRSLRLWTDFCSLFSSNSNLKFLEVKQSFLSDSSVRILCDHVTRSTCHLQKVEIKNVTPDTAYRDFCLAFIGKKTLTHLTLAGHIEWERTMMLMLCDLLRNHKCNLQYLRLGGHCATPEQWAEFFYVLKANQSLKHLRLSANVLLDEGAMLLYKTMTRPKHFLQMLSLENCRLTEASCKDLAAVLVVSKKLTHLCLAKNPIGDTGVKFLCEGLSYPDCKLQTLVLQQCSITKLGCRYLSEALQEACSLTNLDLSINQIARGLWILCQALENPNCNLKHLRLKTYETNLEIKKLLEEVKEKNPKLTIDCNASGATAPPCCDFFC
[3]
  binding: binds

B4: BEND3 (protein, UniProt Q5T5X7 1-828)
chain: MNSTEFTEDVEEVLKSITVKVETEAEDAALDCSVNSRTSEKHSVDSVLTALQDSSKRKQLVSDGLLDSVPGVKRRRLIPEALLAGMRNRENSSPCQGNGEQAGRGRSLGNVWPGEEEPCNDATTPSYKKPLYGISHKIMEKKNPPSGDLLNVYELFEKANASNSPSSLRLLNEPQKRDCGSTGAGTDNDPNIYFLIQKMFYMLNTLTSNMSQLHSKVDLLSLEVSRIKKQVSPTEMVAKFQPPPEYQLTAAELKQIVDQSLSGGDLACRLLVQLFPELFSDVDFSRGCSACGFAAKRKLESLHLQLIRNYVEVYYPSVKDTAVWQAECLPQLNDFFSRFWAQREMEDSQPSGQVASFFEAEQVDPGHFLDNKDQEEALSLDRSSTIASDHVVDTQDLTEFLDEASSPGEFAVFLLHRLFPELFDHRKLGEQYSCYGDGGKQELDPQRLQIIRNYTEIYFPDMQEEEAWLQQCAQRINDELEGLGLDAGSEGDPPRDDCYDSSSLPDDISVVKVEDSFEGERPGRRSKKIWLVPIDFDKLEIPQPDFEVPGADCLLSKEQLRSIYESSLSIGNFASRLLVHLFPELFTHENLRKQYNCSGSLGKKQLDPSRIKLIRHYVQLLYPRAKNDRVWTLEFVGKLDERCRRRDTEQRRSYQQQRKVHVPGPECRDLTSYAINPERFREEFEGPPLPPERSSKDFCKIPLDELVVPSPDFPVPSPYLLSDKEVREIVQQSLSVGNFAARLLVRLFPELFTAENLRLQYNHSGACNKKQLDPTRLRLIRHYVEAVYPVEKMEEVWHYECIPSIDERCRRPNRKKCDILKKAKKVEK
[3]
  binding: binds

B5: L1TD1 (protein, UniProt Q5T7N2 1-865)
chain: MSDVSTSVQSKFARLAKKKENITYMKREQLTETDKDIAPVLDLKCKDVSAIMNKFKVLMEIQDLMFEEMRETLKNDLKAVLGGKATIPEVKNSENSSSRTEFQQIINLALQKTGMVGKIEGENSKIGDDNENLTFKLEVNELSGKLDNTNEYNSNDGKKLPQGESRSYEVMGSMEETLCNIDDRDGNRNVHLEFTERESRKDGEDEFVKEMREERKFQKLKNKEEVLKASREEKVLMDEGAVLTLVADLSSATLDISKQWSNVFNILRENDFEPKFLCEVKLAFKCDGEIKTFSDLQSLRKFASQKSSVKELLKDVLPQKEEINQGGRKYGIQEKRDKTLIDSKHRAGEITSDGLSFLFLKEVKVAKPEEMKNLETQEEEFSELEELDEEASGMEDDEDTSGLEEEEEEPSGLEEEEEEEASGLEEDEASGLEEEEEQTSEQDSTFQGHTLVDAKHEVEITSDGMETTFIDSVEDSESEEEEEGKSSETGKVKTTSLTEKKASRRQKEIPFSYLVGDSGKKKLVKHQVVHKTQEEEETAVPTSQGTGTPCLTLCLASPSKSLEMSHDEHKKHSHTNLSISTGVTKLKKTEEKKHRTLHTEELTSKEADLTEETEENLRSSVINSIREIKEEIGNLKSSHSGVLEIENSVDDLSSRMDILEERIDSLEDQIEEFSKDTMQMTKQIISKERQRDIEERSRSCNIRLIGIPEKESYENRAEDIIKEIIDENFAELKKGSSLEIVSACRVPSKIDEKRLTPRHILVKFWNSSDKEKIIRASRERREITYQGTRIRLTADLSLDTLDARSKWSNVFKVLLEKGFNPRILYPAKMAFDFRGKTKVFLSIEEFRDYVLHMPTLRELLGNNIP
[3]
  binding: binds

No constants are given. Whether binding was seen depends on the method and setting. In cells and extracts the contact can be indirect. These calls come from enrichment with a bait or labelling near it, and not all partners need be listed.
